This is one part of the list. Results with a measured potency or affinity are listed apart.

As usually defined, the Inhibition is the share of the control response that was lost under treatment.

This assay deals with Pseudomonas aeruginosa. Conditions: Concentration 20 uM; ASSAY_TEST Inhibition of Bacterial Growth; detection method Absorption (OD600); MEDIA CAMHB; plate type 384well; NBS; CORNING #3640; time 18 hr.
Turning to `Nc1nc2ccc(Cl)cc2c2nc(-c3ccco3)nn12` [CGS-15943], the Inhibition came to 16.02%. In the case of `c1cncc([C@@H]2CCCN2)c1` [NORNICOTINE] it was 11.27%; in that of `CS(=O)(=O)Nc1ccc(Cc2noc(-c3ccc4[nH]cc(CCN)c4c3)n2)cc1.O.O`, 20.72%; in that of `NCCc1ccccn1`, 14.43%. `CC[C@@H]1/C=C/C=C/C[C@H](C)[C@@H](O)[C@](C)(O)C(=O)[C@H](C)[C@@H](O)[C@H](C)C(=O)[C@H](C)[C@@H](O)[C@H](C)/C=C/C(=O)O[C@H]2[C@@H](C)[C@@H](CC1)O[C@@]1(CC[C@@H](C)[C@@H](C[C@H](C)O)O1)[C@@H]2C` returned an Inhibition of 15.85%. With `COC(=O)N1CCN(C(=O)Cc2ccc(Cl)c(Cl)c2)C(CN2CCCC2)C1.O=C(O)/C=C/C(=O)O` (centres undefined) the figure was 8.98%; with `C=C(C)CN1CC[C@]23c4c5ccc(O)c4O[C@H]2c2[nH]c4ccccc4c2C[C@@]3(O)C1C5.Cl.O`, 7.22%; with `Nc1nc(F)nc2c1ncn2[C@@H]1O[C@H](CO)[C@@H](O)[C@@H]1O` [FLUDARABINE], 3.29%. In the case of `COc1ccc2[nH]cc(C3=CCNCC3)c2c1.COc1ccc2[nH]cc(C3=CCNCC3)c2c1.O=C(O)CCC(=O)O` it was 15%; in that of `CC1CCC[C@H](O)CCCCCc2cc(O)cc(O)c2C(=O)O1` (some centres undefined), 15.14%; in that of `CNC1=Nc2ccc(Cl)cc2C(c2ccccc2)=[N+]([O-])C1` [CHLORDIAZEPOXIDE], 14.44%. For `COC(=O)C1=C(C)NC(C)=C(C(=O)OC)C1c1ccccc1[N+](=O)[O-]` [NIFEDIPINE], the Inhibition stood at 24.23%. With `CCN(C(C)=O)c1cccc(-c2ccnc3c(C#N)cnn23)c1` [ZALEPLON], the Inhibition worked out at 10.08%. In the case of `O=C(O[C@@H]1Cc2c(O)cc(O)cc2O[C@@H]1c1cc(O)c(O)c(O)c1)c1cc(O)c(O)c(O)c1` [EPIGALOCATECHIN GALLATE] it was 27.87%; in that of `C=C1C[C@@H]2[C@H](CC[C@]3(C)C(=O)CC[C@@H]23)[C@@]2(C)C=CC(=O)C=C12` [EXEMESTANE], 41.21%; in that of `CN1[C@@H]2CC[C@H]1CC(OC(=O)C(CO)c1ccccc1)C2` (some centres undefined), 4.94%.

Turning to `C[N+]1(C)CCN(c2ccccc2)CC1.[I-]` [DIMETHYLPHENYLPIPERAZINIUM IODIDE], the Inhibition is given as 13.74%. `CN(C)CCC=C1c2ccccc2CCc2ccccc21.Cl` [AMITRIPTYLINE HYDROCHLORIDE] had an Inhibition of 10.05%. The compound `C[N+]1(C)CCCC(OC(=O)C(O)(c2ccccc2)c2ccccc2)C1.[Br-]` (centres undefined) [MEPENZOLATE BROMIDE] yielded an Inhibition of 14.59%.

Source of the values: ChEMBL document CHEMBL4513141, “CO-ADD screening of NIH (USA) - Clinical Collection” (2021).
